Experimental data from publication doi:10.1101/2020.02.26.965178.
Results are given in words; binding and its absence hold for the method and conditions named. For some assays here: In cells and extracts the contact can be indirect. Some entries that bind do so weakly or less than the wild type.

The chains behind the UniProt entries cited, without tags or fusion partners.
UniProt P70396: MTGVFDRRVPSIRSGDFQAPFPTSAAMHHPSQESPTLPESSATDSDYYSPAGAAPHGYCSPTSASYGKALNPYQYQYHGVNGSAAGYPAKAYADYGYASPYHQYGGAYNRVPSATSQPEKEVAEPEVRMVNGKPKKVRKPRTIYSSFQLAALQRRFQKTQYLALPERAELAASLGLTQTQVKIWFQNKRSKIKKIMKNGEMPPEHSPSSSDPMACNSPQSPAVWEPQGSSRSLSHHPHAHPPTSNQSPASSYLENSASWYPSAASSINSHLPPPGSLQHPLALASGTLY
UniProt Q8BMJ8: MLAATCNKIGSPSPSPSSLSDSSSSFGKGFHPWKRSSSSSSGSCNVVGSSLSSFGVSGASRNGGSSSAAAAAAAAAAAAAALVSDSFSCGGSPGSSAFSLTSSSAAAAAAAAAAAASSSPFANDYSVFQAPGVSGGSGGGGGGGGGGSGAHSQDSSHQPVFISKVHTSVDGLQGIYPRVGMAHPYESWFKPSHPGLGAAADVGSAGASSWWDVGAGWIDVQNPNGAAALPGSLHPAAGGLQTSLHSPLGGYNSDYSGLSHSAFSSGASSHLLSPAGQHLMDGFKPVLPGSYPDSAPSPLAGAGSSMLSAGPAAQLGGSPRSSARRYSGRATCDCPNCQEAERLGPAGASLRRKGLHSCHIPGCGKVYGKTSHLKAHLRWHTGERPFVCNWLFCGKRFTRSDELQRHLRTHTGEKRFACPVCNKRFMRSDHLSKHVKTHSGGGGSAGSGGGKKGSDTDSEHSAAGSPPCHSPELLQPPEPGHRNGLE
UniProt Q9ESX2: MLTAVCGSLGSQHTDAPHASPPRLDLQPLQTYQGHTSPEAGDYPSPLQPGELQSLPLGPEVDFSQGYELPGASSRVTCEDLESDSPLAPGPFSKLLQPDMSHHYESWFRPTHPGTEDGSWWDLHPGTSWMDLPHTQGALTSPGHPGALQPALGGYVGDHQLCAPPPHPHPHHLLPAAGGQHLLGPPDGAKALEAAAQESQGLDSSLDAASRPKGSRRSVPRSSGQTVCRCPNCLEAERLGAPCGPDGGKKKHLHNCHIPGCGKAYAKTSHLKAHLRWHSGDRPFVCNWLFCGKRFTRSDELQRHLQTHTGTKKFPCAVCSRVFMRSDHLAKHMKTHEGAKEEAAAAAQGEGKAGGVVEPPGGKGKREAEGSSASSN

Assays:
Myc-Dlx5 [1] = molecular target: Myc-Dlx5 (UniProt P70396); assay: native gel or EMSA
Myc-Dlx5 [2] = molecular target: Myc-Dlx5 (UniProt P70396); assay: co-IP
FLAG-Sp8 = FLAG-Sp8 (UniProt Q8BMJ8); assay: co-IP
[3] = molecular target: Sp8 fused at its C-terminus to a YFP moiety (Sp8-YN, Sp8-YC) (UniProt Q8BMJ8); assay: split reporter
[4] = molecular target: Sp6 fused at its C-terminus to a YFP moiety (Myc-Sp6-YN, Myc-Sp6-YC) (UniProt Q9ESX2); assay: split reporter

Substance | binding (Myc-Dlx5 [1]) | binding (Myc-Dlx5 [2]) | binding [3] | other results
FLAG-Sp6 (from UniProt Q9ESX2 1-376) | binds | binds |  | 
FLAG-Sp8 (from UniProt Q8BMJ8 1-486) | binds | binds |  | 
Sp6 as used in the co-immunoprecipitation with Sp8 (construct not told) (from UniProt Q9ESX2 1-376) |  |  |  | binding (FLAG-Sp8): binds
Sp6 fused at its C-terminus to a YFP moiety (Myc-Sp6-YN, Myc-Sp6-YC) (from UniProt Q9ESX2 1-376) |  |  | binds | binding [4]: binds
Sp8 fused at its C-terminus to a YFP moiety (Sp8-YN, Sp8-YC) (from UniProt Q8BMJ8 1-486) |  |  | binds | 
